From patent EP2138545B1, “USE OF PORPHYRAZINE DERIVATIVE AS SEMICONDUCTOR” (Hiroshima University, priority 2007, dated 2008)

Experiment: FET characteristic evaluation of bottom-gate/top-contact type FET element prepared by spin coating
Conditions: for Ion/Ioff / Vth / µFET: Treated with OTS

Structure (SMILES) | Ion/Ioff (Annealing at 100°C) | Vth (Annealing at 100°C) [V] | µFET (Annealing at 100°C) | Ion/Ioff (No annealing) | Vth (No annealing) [V] | µFET (No annealing) | carrier mobility (p-type) (treated with OTS, before annealing, in the atmosphere) | carrier mobility (OTS treatment, annealing state not given)
CCCCCCCCCCCCc1cc2c(s1)-c1nc-2nc2[nH]c(nc3nc(nc4[nH]c(n1)c1cc(CCCCCCCCCCCC)sc41)-c1cc(CCCCCCCCCCCC)sc1-3)c1cc(CCCCCCCCCCCC)sc21 [1b, Tetrakis(5-dodecylthiopheno)[2.3-b]porphyrazine] | 5×10^4 | -12.6 | 7.11×10^-2 cm^2V^-1s^-1 | 10^4 | -10.1 | 2.87×10^-2 cm^2V^-1s^-1 | over 10^-2 cm^2/Vs | –
CCCCc1cc2c(s1)-c1nc-2nc2[nH]c(nc3nc(nc4[nH]c(n1)c1cc(CCCC)sc41)-c1cc(CCCC)sc1-3)c1cc(CCCC)sc21 [1a, Tetrakis(5-butylthiopheno)[2.3-b]porphyrazine] | 10^2 | -18.5 | 4.75×10^-4 cm^2V^-1s^-1 | 10 | -15.8 | 1.65×10^-4 cm^2V^-1s^-1 | – | over 10^-4 cm^2/Vs
